Assay results taken from PMC12240075.
No constants are given. Whether binding was seen depends on the method and setting. In cells and extracts the contact can be indirect. Some binding calls cover weakened binding; strength is not graded here. Where a sequence is shown, tags or fusion partners need not be part of it.

Protein sequences, listed by entry. Tags and fused reporters are not part of them.
UniProt P11142: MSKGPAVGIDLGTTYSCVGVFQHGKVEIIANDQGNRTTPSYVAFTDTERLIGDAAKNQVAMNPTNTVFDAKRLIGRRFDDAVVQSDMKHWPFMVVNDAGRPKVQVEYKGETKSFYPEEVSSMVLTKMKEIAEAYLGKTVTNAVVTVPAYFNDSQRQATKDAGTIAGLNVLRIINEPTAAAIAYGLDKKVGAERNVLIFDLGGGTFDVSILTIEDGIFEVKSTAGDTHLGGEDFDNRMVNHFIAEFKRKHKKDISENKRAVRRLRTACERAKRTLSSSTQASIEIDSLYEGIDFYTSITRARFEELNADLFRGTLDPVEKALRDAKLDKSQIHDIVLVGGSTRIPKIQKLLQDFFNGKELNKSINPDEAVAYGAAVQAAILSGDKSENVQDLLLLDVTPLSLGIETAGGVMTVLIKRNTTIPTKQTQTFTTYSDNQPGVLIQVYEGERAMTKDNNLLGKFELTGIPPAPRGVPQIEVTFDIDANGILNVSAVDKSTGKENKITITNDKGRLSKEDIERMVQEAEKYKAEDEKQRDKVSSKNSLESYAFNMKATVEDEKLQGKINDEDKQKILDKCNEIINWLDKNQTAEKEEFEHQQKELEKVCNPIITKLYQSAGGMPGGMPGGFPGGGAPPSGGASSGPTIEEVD

Columns and labels:
HA-YEATS2-WT = molecular target: T1, HA-YEATS2-WT (UniProt Q9ULM3); experiment: co-IP; both proteins tagged and overproduced in transfected cells (HEK293T); immunoprecipitation by the tag, immunoblot; lysis buffer 200 mM NaCl, 1 mM EDTA, 20 mM Tris (pH 7.5), 0.5% NP-40
T1 sequence: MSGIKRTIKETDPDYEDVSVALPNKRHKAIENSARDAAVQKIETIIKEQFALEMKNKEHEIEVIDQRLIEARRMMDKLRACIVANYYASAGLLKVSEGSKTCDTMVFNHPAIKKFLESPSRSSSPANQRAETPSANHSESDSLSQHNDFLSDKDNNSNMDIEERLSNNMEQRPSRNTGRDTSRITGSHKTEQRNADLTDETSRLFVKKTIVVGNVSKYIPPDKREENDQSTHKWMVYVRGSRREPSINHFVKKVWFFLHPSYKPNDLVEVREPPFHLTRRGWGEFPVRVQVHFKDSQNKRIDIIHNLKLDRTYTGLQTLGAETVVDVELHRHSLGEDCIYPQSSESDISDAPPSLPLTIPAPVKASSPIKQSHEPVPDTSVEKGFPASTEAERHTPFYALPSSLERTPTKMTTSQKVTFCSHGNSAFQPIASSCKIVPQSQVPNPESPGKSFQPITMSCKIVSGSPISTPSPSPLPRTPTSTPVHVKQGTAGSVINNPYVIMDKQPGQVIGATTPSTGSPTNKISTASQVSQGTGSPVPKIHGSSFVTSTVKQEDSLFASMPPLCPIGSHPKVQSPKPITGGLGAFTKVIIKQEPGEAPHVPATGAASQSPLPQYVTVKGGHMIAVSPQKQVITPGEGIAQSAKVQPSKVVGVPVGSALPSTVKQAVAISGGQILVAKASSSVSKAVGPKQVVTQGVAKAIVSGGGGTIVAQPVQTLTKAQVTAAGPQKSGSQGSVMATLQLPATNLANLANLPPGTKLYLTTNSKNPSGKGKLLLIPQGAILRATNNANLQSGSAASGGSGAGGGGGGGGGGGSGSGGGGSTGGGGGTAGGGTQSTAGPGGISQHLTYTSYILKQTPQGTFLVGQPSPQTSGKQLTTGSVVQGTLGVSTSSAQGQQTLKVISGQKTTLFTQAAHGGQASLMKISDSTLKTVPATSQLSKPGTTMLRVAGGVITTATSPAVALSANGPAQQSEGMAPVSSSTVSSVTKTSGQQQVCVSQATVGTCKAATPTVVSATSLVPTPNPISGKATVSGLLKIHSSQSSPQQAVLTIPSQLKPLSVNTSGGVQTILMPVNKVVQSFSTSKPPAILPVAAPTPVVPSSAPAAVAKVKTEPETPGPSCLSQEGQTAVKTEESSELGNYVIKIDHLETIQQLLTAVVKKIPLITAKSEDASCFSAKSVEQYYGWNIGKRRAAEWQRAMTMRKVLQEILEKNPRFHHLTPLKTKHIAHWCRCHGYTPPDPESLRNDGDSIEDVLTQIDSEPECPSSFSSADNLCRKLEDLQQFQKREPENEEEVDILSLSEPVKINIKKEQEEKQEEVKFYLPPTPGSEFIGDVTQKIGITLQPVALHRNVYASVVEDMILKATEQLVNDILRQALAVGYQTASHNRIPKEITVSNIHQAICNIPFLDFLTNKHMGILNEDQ

HA-OGA-Q356A/E360A = molecular target: T2, HA-OGA-Q356A/E360A (UniProt O60502); experiment: as above
T2 sequence: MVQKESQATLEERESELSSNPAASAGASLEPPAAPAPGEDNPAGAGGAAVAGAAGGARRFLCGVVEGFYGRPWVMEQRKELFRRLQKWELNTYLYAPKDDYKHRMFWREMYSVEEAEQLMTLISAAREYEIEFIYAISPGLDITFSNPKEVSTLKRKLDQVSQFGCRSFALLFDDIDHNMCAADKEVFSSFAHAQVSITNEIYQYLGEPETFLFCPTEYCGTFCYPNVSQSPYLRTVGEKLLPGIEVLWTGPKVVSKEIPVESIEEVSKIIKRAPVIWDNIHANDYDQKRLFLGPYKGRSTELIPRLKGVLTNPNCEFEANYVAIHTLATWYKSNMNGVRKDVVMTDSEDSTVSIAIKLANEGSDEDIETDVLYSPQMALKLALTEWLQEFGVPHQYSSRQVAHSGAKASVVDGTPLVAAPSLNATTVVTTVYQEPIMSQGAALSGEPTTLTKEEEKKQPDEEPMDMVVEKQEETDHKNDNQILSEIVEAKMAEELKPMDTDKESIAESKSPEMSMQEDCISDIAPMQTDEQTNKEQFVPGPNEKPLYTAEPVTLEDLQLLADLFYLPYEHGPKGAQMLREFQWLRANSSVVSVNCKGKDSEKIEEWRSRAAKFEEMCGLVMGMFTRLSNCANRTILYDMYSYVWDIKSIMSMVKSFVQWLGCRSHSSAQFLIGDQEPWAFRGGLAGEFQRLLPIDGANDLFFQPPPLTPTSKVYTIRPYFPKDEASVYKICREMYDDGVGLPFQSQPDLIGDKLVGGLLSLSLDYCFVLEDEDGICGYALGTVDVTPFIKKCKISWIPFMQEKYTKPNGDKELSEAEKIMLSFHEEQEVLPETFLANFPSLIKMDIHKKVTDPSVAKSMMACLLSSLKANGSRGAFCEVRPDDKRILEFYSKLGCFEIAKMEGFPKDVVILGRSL

For Flag-HSC70 (from UniProt P11142 1-646), the binding (HA-YEATS2-WT) was “binds” and the binding (HA-OGA-Q356A/E360A) was “binds”.
